{"source": "patent US20240009232A1", "about": "“COMBINATION THERAPY COMPRISING HER-2-DC1 VACCINE AND A PROBIOTIC” (H. LEE MOFFITT CANCER CENTER AND RESEARCH INSTITUTE, INC., priority 2021, published 2024)", "tested_on": "TUBO tumors", "test": "Mono- and combination therapies in HER2+ TUBO bearing mice (FIG. 8, FIG. 9)", "type": "in vivo, Balb/C mice", "settings": "monotherapy", "experimental": "Balb/C mice or C57BL/6 mice received tumor cells on day 0 followed by different treatments; two doses of Taxol given intraperitoneally (i.p.) once a week; CDK inhibitor, abemaciclib was administered by oral gavage till end point; Anti-PD-L1 was given i.p. twice a week until end point; DC1 vaccine was given intratumorally.\nBalb/C mice bearing TUBO tumors were treated with intratumoral HER2-DC1 vaccine alone or anti-HER2 antibody or a combination of both.\nTUBO bearing mice were treated with intratumoral HER2-DC1 vaccine alone or Abemaciclib or a combination of both.\nHere, we can investigate the role of gut microbiome in response to combination therapy. […] Balb/C mice bearing TUBO tumors were treated with intratumoral HER-DC1 alone or anti-HER2 antibody (7.16.4+7.9.5) alone or combination of both. While CDK inhibitor, abemaciclib was given daily by oral gavage alone or in combination with intratumoral HER2-DC1.", "note": "At least one structure is not confirmed: it was looked up by name or label, or the drawing left a doubt."}
{"smiles": "CCN1CCN(Cc2ccc(Nc3ncc(F)c(-c4cc(F)c5nc(C)n(C(C)C)c5c4)n3)nc2)CC1", "note": "[abemaciclib]", "values": [{"measurement": "tumor growth", "value": "modestly delayed tumor growth"}]}
